PubChem BioAssay AID1259415 (National Center for Advancing Translational Sciences (NCATS), 2018)
About 18,000 (4.4%) of roughly 410,000 compounds were called active. Inconclusive results, whose numbers are uncertain, are shown with a selection of clear calls. Rule as the data show it: active = activity change below about -60%; inconclusive = no clear call, values can overlap the other calls; inactive = above about -39%.
% is scaled to controls: 0 for no effect and ±100 for the full control effect.

Assay: qHTS Assay for inhibitors of the human cytomegalovirus (HCMV)
Conditions: HFF cells, HCMV-luciferase reporter, 72 h; at 57.5 µM; active compounds read low
How it was run: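 After 16 h attachment at 37C, HFF cells received test compound and HCMV-luciferase (1 PFU/cell); reporter luminescence read 72 h later, data normalized against buffer-only and known inhibitor Salinomycin.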
With COc1ccc(Cl)cc1C(=O)NNC(=O)c1n[nH]c2ccccc12 the activity change, negative = inhibition was inconclusive: -49.9%.
In the case of O=S(=O)(NCc1ccccc1F)NCc1ccccc1F, the activity change, negative = inhibition is reported as inconclusive: -46.4%.
With O=C(Nc1ccc(F)cc1F)c1cccc(C(=O)Nc2ccc(F)cc2F)n1 the activity change, negative = inhibition was active: -99.1%.
With Cc1ccccc1NC(=S)N(Cc1ccccn1)Cc1ccccc1Cl the activity change, negative = inhibition was inconclusive: -54.3%.
With CN(C)/C=C1\C(=O)NN=C1c1ccccc1 the activity change, negative = inhibition was inconclusive: -47.9%.
In the case of CCCN1CCN(C(=O)CN2C(=O)CC(C)(C)S(=O)(=O)c3ccccc32)CC1, the activity change, negative = inhibition is reported as inconclusive: -48.1%.
For O=C(Nc1ccc2nc3n(c(=O)c2c1)CCCCC3)C(=O)N1CCN(c2ccc(F)cc2)CC1, the activity change, negative = inhibition was inconclusive: -48%.
For Cc1ccccc1Nc1nc(N)nc(CSc2nnc(-c3ccccc3)n2C)n1, the activity change, negative = inhibition was inconclusive: -40.2%.
For N#Cc1cc2[nH]c3ccccc3c2[n+](-c2ccc([N+](=O)[O-])cc2)c1N, the activity change, negative = inhibition was inconclusive: -52.5%.
With CCC(OC(=O)c1cccs1)C(=O)NCc1ccc(C)cc1 (stereo not given) the activity change, negative = inhibition was inconclusive: -43.5%.
With O=S(=O)(NCc1ccccc1)NCc1ccccc1 the activity change, negative = inhibition was active: -68.4%.
For CC(CNc1nc2ccc(Cl)cc2n2cnnc12)c1ccccc1 (stereo not given), the activity change, negative = inhibition was inconclusive: -55%.
For CC(C)(C)c1cc(C(=O)NN)n(Cc2ccc(Cl)cc2Cl)n1, the activity change, negative = inhibition was active: -79.4%.
For COc1cc(/C=C/C(=O)O)cc(OC)c1O, the activity change, negative = inhibition was inconclusive: -40.6%.
In the case of Cc1c(NC(=O)C(C)Sc2nc(N)cc(=O)[nH]2)c(=O)n(-c2ccccc2)n1C (stereo not given), the activity change, negative = inhibition is reported as active: -62.6%.
For O=[N+]([O-])c1cccc(-c2csc(CS(=O)(=O)Cc3ccco3)n2)c1, the activity change, negative = inhibition was inactive: -39.6%.
With CSc1nc(Cl)c(Br)c(Nc2c[nH]c(=O)[nH]c2=O)n1 the activity change, negative = inhibition was inactive: -34.2%.
For Cc1ccccc1CNCCSc1nnnn1-c1ccccc1, the activity change, negative = inhibition was inactive: -11.7%.
In the case of NCCCS(=O)(=O)O, the activity change, negative = inhibition is reported as inconclusive: -47%.
For Cc1ccc(-n2c(=O)c3ccc(C(=O)NCc4ccco4)cc3n(Cc3ccc(Cl)cc3)c2=O)cc1, the activity change, negative = inhibition was inconclusive: -50.3%.
In the case of Cc1ccc2c(c1)N(S(=O)(=O)c1ccc3c(c1)NC(=O)CC(=O)N3)CCO2, the activity change, negative = inhibition is reported as inconclusive: 0%.
In the case of O=C(COC(=O)c1ccc(O)cc1)Nc1cc(C(F)(F)F)ccc1Cl, the activity change, negative = inhibition is reported as inconclusive: -43.3%.
With Cc1ccccc1CN1C(=O)c2ccccc2S(=O)c2ccc(C(=O)NCc3ccccc3)cc21 (stereo not given) the activity change, negative = inhibition was inconclusive: -49.8%.
With Cc1cccc(NC(=O)c2ccc(CN3CCN(Cc4ccccc4)CC3)cc2)c1 the activity change, negative = inhibition was inconclusive: -40.3%.
With CCOC(=O)CNC(c1ccccc1)c1cc(Br)ccc1NC(=O)OCC (stereo not given) the activity change, negative = inhibition was inconclusive: -54.3%.
For CCCC(C(=O)Nc1ccc(S(=O)(=O)N2CCOCC2)cc1)c1ccccc1 (stereo not given), the activity change, negative = inhibition was inactive: -17%.
In the case of O=C(Nc1c2c(nn1-c1ccccc1)CSC2)c1ccc(N2C(=O)CCC2=O)cc1, the activity change, negative = inhibition is reported as inconclusive: -56%.
For Cc1ccc(C)c(NC(=S)NC(NC(=O)Cc2ccccc2)C(Cl)(Cl)Cl)c1 (stereo not given), the activity change, negative = inhibition was inconclusive: -51.7%.
In the case of O=C1CC(c2ccccc2Cl)CC(O)=C1C=Nc1ccccc1 (stereo not given), the activity change, negative = inhibition is reported as active: -72.7%.
In the case of Cc1cccc(N(C)C(=O)COc2cc(=O)n(C)c3ccccc23)c1, the activity change, negative = inhibition is reported as inconclusive: -52.8%.
For CC1(C(=O)Nc2cnc3ccccc3c2)CCN1Cc1ccccc1OC(F)F (stereo not given), the activity change, negative = inhibition was inconclusive: -51.3%.
In the case of COc1ccccc1Cn1c(=O)c2ccccc2n2c(Sc3ncnc4sccc34)nnc12, the activity change, negative = inhibition is reported as inconclusive: -46.8%.
With O=C(COc1cccc(C(F)(F)F)c1)Nc1ccc2[nH]ncc2c1 the activity change, negative = inhibition was inconclusive: -56.1%.
With COc1ccccc1/C=C1\SC(=S)N(CCC(=O)NCCCn2ccnc2)C1=O the activity change, negative = inhibition was inconclusive: -49.9%.
In the case of CC(=O)N(Cc1cccs1)Cc1cc2ccc(C)c(C)c2nc1Cl, the activity change, negative = inhibition is reported as inconclusive: -42.1%.
With COc1ccc(C(=O)/C=C2/C(=O)Nc3ccccc32)c(OC)c1 the activity change, negative = inhibition was active: -100%.
In the case of O=C(O)c1cccc(C(=O)c2cccc(C(=O)O)c2)c1, the activity change, negative = inhibition is reported as inconclusive: -40.8%.
For Cc1cccc(CN2C(=O)CN=C(c3ccccc3)c3cc(Cl)ccc32)c1, the activity change, negative = inhibition was inconclusive: -40.2%.
With COc1ccc(/C=C/C(=O)NC(=S)NCCc2ccc(OC)c(OC)c2)cc1 the activity change, negative = inhibition was active: -61.8%.
For C1=C(c2c[nH]c3ccccc23)CCN(Cc2ccccc2)C1, the activity change, negative = inhibition was active: -97.4%.
With CC(=O)Nc1ccc(CNc2nc3cc(-c4cccc(C(F)(F)F)c4)sc3c(=O)n2C)cc1 the activity change, negative = inhibition was inconclusive: -51.6%.
For Cc1ccc(C)c(N(C(=O)CNC(=O)c2ccco2)C(C(=O)NCC2CCCO2)c2ccccc2)c1 (stereo not given), the activity change, negative = inhibition was inconclusive: -46.6%.
With CCC(C)(C(=O)NC1CCCCC1)N(C(=O)CNC(=O)c1ccccc1)c1c(C)n(C)n(-c2ccccc2)c1=O (stereo not given) the activity change, negative = inhibition was inconclusive: -43.9%.
In the case of COC(=O)c1ccccc1S(=O)(=O)N1CCC(C(=O)OC(C)C(=O)Nc2ccc(NC(C)=O)cc2)CC1 (stereo not given), the activity change, negative = inhibition is reported as inconclusive: -47%.
In the case of Cc1cc(NC(=O)C(C)SCC(=O)Nc2ccccc2C(C)(C)C)no1 (stereo not given), the activity change, negative = inhibition is reported as inconclusive: -41.1%.
In the case of O=C(Nc1ccc(CN2CCOCC2)cc1)c1ccc(-c2cccc(Cl)c2)o1, the activity change, negative = inhibition is reported as active: -85.5%.
With CN1/C(=C\C(=O)COc2ccc3c(c2)OCO3)C(C)(C)c2ccccc21 the activity change, negative = inhibition was inconclusive: -44.9%.
With COc1ccc(N(Cc2cccs2)C(=O)COc2ccc([N+](=O)[O-])cc2)cc1 the activity change, negative = inhibition was inconclusive: -53.3%.
In the case of COc1ccc(CNS(=O)(=O)c2ccc(NC(=O)N3CCCCC3)cc2)cc1, the activity change, negative = inhibition is reported as inconclusive: -50.7%.
For COc1ccc(/C=C/C(=O)NCCCN2CCCC2)cc1, the activity change, negative = inhibition was active: -103%.
In the case of Cc1ccccc1-n1nnnc1Sc1nnnn1-c1ccccc1, the activity change, negative = inhibition is reported as inconclusive: -56.4%.
With Nc1[nH]ncc1-c1ccc(F)cc1 the activity change, negative = inhibition was inconclusive: -54.5%.
With Cc1cccc(-n2c(CNC(=O)c3ccc(S(=O)(=O)N(C)C)cc3)nnc2SCC(=O)Nc2ccc(F)cc2)c1 the activity change, negative = inhibition was inactive: 2.67%.
In the case of CCN1/C(=C2\OC(=S)N(C)C2=O)C=Cc2ccccc21, the activity change, negative = inhibition is reported as inconclusive: -49.8%.
With Cc1ccc(/C=C/C(=O)Nc2ccc(S(=O)(=O)Nc3cc(C)nc(C)n3)cc2)cc1 the activity change, negative = inhibition was inconclusive: -42%.
